# Source: PubChem BioAssay AID1439 (NMMLSC, 2008)
# Amino acid sequences for entries named in this document (tags omitted).
# UniProt P09471, whole entry, looked up: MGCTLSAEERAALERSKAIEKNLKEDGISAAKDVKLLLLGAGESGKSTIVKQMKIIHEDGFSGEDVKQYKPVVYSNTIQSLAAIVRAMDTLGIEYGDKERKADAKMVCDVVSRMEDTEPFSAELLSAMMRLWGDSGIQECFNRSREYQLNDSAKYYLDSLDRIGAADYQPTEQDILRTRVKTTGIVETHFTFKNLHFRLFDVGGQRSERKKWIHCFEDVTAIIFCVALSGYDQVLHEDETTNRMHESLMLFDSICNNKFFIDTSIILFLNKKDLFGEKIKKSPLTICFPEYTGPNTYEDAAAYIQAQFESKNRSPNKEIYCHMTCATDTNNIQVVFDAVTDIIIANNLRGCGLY
# Among all 220,000 compounds or so, about 770 (0.35%) were called active. The inconclusive results got no clear call from the source; some entries with a clear call stand among them for comparison. No stated cut-off is given here; in the data, active means binding response below about 49% or above about 150%; inconclusive means no clear call, values can overlap the other calls; inactive means in between.
# Target: Guanine nucleotide-binding protein G(o) subunit alpha (Homo sapiens) (UniProt P09471)
# Experiment: RGS7-Galphao binding modulators, primary screen, biochemical, multiplexed bead flow cytometry (AID 1439);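 further: fluorescent Galphao held in activated GDP-AlF4 state binding bead-coupled RGS7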
# Conditions: at 10 µM, actives lie on both sides
row,SMILES,binding response (% of control)
1,Oc1ccccc1-c1cc(C(F)(F)F)nc(-c2ccccc2)n1,inconclusive: 98.7%
2,CC1CC(C)CN(S(=O)(=O)c2ccc(NN)nc2)C1 (stereo unspecified),inconclusive: 73.9%
3,CCC(OC(=O)c1cc2sccc2n1C)C(=O)NCC1CCCO1 (stereo unspecified),active: 161% [activator]
4,N/C(=N/O)c1ccccc1N1CCC(Cc2ccccc2)CC1,inconclusive: 129%
5,COCCNc1ccc([N+](=O)[O-])cc1C(=O)Nc1cccc(C)n1,inconclusive: 96.8%
6,O=C(c1cccs1)N1CCN(S(=O)(=O)N2CCCCC2)CC1,inactive: 95.5%
7,N=C1C(c2nc(-c3ccc(Cl)cc3)cs2)=C(O)CN1NC(=O)c1ccc(O)cc1,inconclusive: 62.4%
8,CCOc1ccccc1NC(=O)Nc1ccccn1,inconclusive: 107%
9,O=C(NN1CCOCC1)NC12CC3CC(CC(C3)C1)C2,inconclusive: 145%
10,Cc1nnc(SCC(=O)NCCN2C(=O)CSC2=O)n1-c1ccccc1,inconclusive: 104%
11,CCN(CC)S(=O)(=O)c1ccc(N2CCOCC2)c(NC(=O)C2CCCO2)c1 (stereo unspecified),inconclusive: 90.3%
12,O=C(/C=C/c1ccccc1)c1ccc2c(c1)OCO2,inconclusive: 87.1%
13,Cc1c(N2C(=O)c3ccccc3C2(O)c2ccccc2)c(=O)n(-c2ccccc2)n1C (stereo unspecified),inconclusive: 110%
14,CCOC(=O)Cc1[nH]nc2c1C(Cc1ccccc1)C(C#N)=C(N)O2 (stereo unspecified),inconclusive: 104%
15,S=C(NNc1cccc(Cl)c1)NC1CCCCC1,inconclusive: 86.5%
16,Cc1cccc(N2CCN(c3nnc(C(F)(F)F)s3)CC2)c1,inconclusive: 99.5%
17,O=C(NNS(=O)(=O)c1ccc(F)cc1F)c1csc(-c2cccnc2)n1,inconclusive: 77.3%
18,COC(=O)CCC(=O)OC1(C)C(=O)C=C2C=C3CCCN3C=C2C1=O (stereo unspecified),inconclusive: 103%
19,COc1ccc(C2c3ccsc3CCN2C(=O)C(C)(C)C)cc1 (stereo unspecified),inconclusive: 101%
20,CC1CCC(NCC(=O)Nc2cccc(S(N)(=O)=O)c2)CC1 (stereo unspecified),inconclusive: 94.3%
21,FC(F)Oc1ccc(-c2c[n+]3c(n2-c2ccccc2)CCCCC3)cc1,inconclusive: 209%
22,CNC(=O)c1c(NC(=O)c2cccc(N3C(=O)CCC3=O)c2)sc2c1CCC2,inconclusive: 421%
23,CCc1c(C(=O)OCc2ccccc2)[nH]c(C)c1C,inconclusive: 94.7%

row,SMILES,binding response (% of control)
1,COc1ccc(NC(=O)C2C(c3ccccc3)C2(Cl)Cl)cc1 (stereo unspecified),inconclusive: 231%
2,Cc1cc(C(=O)NCc2ccc(F)cc2)n(-c2ccccc2)n1,inconclusive: 70%
3,O=C(O)Cc1ccc(N=Nc2c(O)c(C(=O)O)cc3ccccc23)cc1,inconclusive: 80.4%
4,FC(F)(F)c1cccc(Nc2cc(-c3ccccc3)nc3ncnn23)c1,inconclusive: 88.7%
5,Nc1c(C(=O)NCc2ccc3c(c2)OCO3)nnn1Cc1cccc(F)c1,inconclusive: 88.5%
6,CCOCCCNC(=O)c1c(N)n(-c2ccc3c(c2)OCO3)c2nc3ccccc3nc12,inconclusive: 106%
7,Brc1ccc(Nc2nc(-c3cccnc3)cs2)cc1,inconclusive: 90.9%
8,Cn1c2c(c(=O)n(C)c1=O)CN(CCN1CCNCC1)CN2,inactive: 97.2%
9,O=C(O)C(Cc1cc(Cl)ccc1Cl)Sc1nc2ccccc2[nH]1 (stereo unspecified),inconclusive: 117%
10,CCN(CC)S(=O)(=O)c1ccc(Oc2ccccc2)c(N)c1,inconclusive: 106%
11,O=Cc1ccc(-c2ccc(Cl)cc2Cl)[nH]1,active: 16.3%
12,O=C1/C(=C/C=C/c2ccco2)SC(=S)N1NS(=O)(=O)c1ccccc1,inconclusive: 88.6%
13,Cc1ccccc1Nc1c(-c2ccccn2)nc2c(C)cccn12,inconclusive: 107%
14,Cc1oc(S(=O)(=O)N(C)C)cc1C(=O)Nc1ccc(Cl)cc1,inconclusive: 98.2%
15,CNC(=S)N1CCc2sccc2C1C (stereo unspecified),inconclusive: 97.5%
16,Cc1sc2nc3c(C(=O)N4CCCC4)cc(C(=O)c4ccccc4O)cn3c(=O)c2c1C,inconclusive: 113%
17,CCOCCc1nnc(NC(=O)c2cc(OC)c(OC)cc2[N+](=O)[O-])s1,inconclusive: 68.6%
18,Cn1ncc2c(NCc3ccccc3)ncnc21,inconclusive: 355%
19,N#C/C(=C\C=C\c1ccccc1)c1nc(-c2ccc(Cl)cc2)cs1,inconclusive: -48.5%
20,CC(=O)Nc1ccc(S(=O)(=O)c2ccc(C)cc2)cc1,inconclusive: 86.6%
21,CN(c1ccccc1)S(=O)(=O)c1cc(C(=O)OCC(N)=O)ccc1Cl,inconclusive: 113%
22,CC1(C)Cc2c(sc(NC(=O)/C=C/C(=O)O)c2C#N)CO1,inconclusive: 87.7%
23,N=c1n(CCN2CCCCC2)c2ccccc2n1CC(=O)c1ccc(Cl)c(Cl)c1,inconclusive: 58.1%

# Three entries from above, reformatted:
row | SMILES | binding response (% of control)
20 | CC(=O)Nc1ccc(S(=O)(=O)c2ccc(C)cc2)cc1 | inconclusive: 86.6%
21 | CN(c1ccccc1)S(=O)(=O)c1cc(C(=O)OCC(N)=O)ccc1Cl | inconclusive: 113%
22 | CC1(C)Cc2c(sc(NC(=O)/C=C/C(=O)O)c2C#N)CO1 | inconclusive: 87.7%

# Remaining list, next part.

row,SMILES,binding response (% of control)
1,CCOC(=O)c1cnc(SCC(=O)N2CCOCC2)nc1N,inactive: 108%
2,CC(C)N1CCC(N2CCN(Cc3cccnc3)CC2CCO)CC1 (stereo unspecified),inactive: 100%
3,CC(C)(C)C(=O)COC(=O)c1c2c(nc3ccccc13)CCC2,inconclusive: 67.4%
4,Cc1ccc(C(=O)NCC(=O)NCC(=O)OCc2ccc(F)cc2)cc1,inactive: 97.2%
5,COC(=O)c1c(NC(=O)COC(=O)c2ccc(NC(=O)CC#N)cc2)sc2c1CCCCC2,inconclusive: 123%
6,O=C(O)c1cccc(S(=O)(=O)Nc2ccccc2N2CCOCC2)c1,inconclusive: 206%
7,Cc1ccc(/C=C/C(=O)Nc2cc(S(N)(=O)=O)ccc2O)cc1,inconclusive: 66.3%
8,O=C(CSc1nnc(-c2cccs2)n1Cc1ccccc1)N1CCc2ccccc2C1,inactive: 102%
9,Cc1ccc(C)c(NC(=O)CN(C)C(=O)/C=C/c2ccco2)c1,inactive: 103%
10,Nc1cc(S(=O)(=O)Nc2cc(Cl)ccc2Cl)ccc1N1CCOCC1,inconclusive: -517%
11,COc1ccc(C2(CNC(=O)/C=C\c3ccco3)CCCC2)cc1OC,inactive: 93%
12,CCCc1c(C(=O)Nc2ccc(OC)cc2)cnn1-c1ccccc1,inconclusive: 72.7%
13,COc1ccc(NC(=O)N2CCN(c3ccc([N+](=O)[O-])cc3)CC2)cc1OC,inconclusive: 78.8%
14,NS(=O)(=O)c1ccc(NC(=O)COC(=O)c2ccc3c(c2)OCCO3)cc1,inconclusive: 113%
15,CSc1ccc(N=Nc2c(C)[nH]n(C)c2=O)cc1,inconclusive: 76.8%
16,COc1ccccc1CNC(=O)C(NC(=O)c1ccccc1)C(C)C (stereo unspecified),inactive: 106%
17,Cc1c(-n2c(SCC(N)=O)nc3ccccc3c2=O)c(=O)n(-c2ccccc2)n1C,inconclusive: 116%
18,COc1ccc(NC(=O)C2C3CC/C=C\CCC32)cc1 (stereo unspecified),inconclusive: 64.8%
19,COC(=O)c1cccc(C23CC4(C2)[C@H](CN(Cc2cccnc2)[C@@H]4c2ccccc2)C3c2ccc(C(F)(F)F)cc2)c1 (stereo partly specified),inconclusive: 104%
20,COc1ccccc1N1CCN(C(C)C(=O)Nc2ccc(S(=O)(=O)N3CCOCC3)cc2)CC1 (stereo unspecified),inactive: 98.7%
21,C#Cc1ccc([C@@H]2C=C(C(=O)NCc3nc4ccccc4[nH]3)O[C@H](OCC)[C@H]2CCCO)cc1,inconclusive: 84.8%
22,Cc1ccc(S(=O)(=O)NNC(=S)NCCc2ccccc2)cc1,inconclusive: 70.4%
23,O=C(/C=C/c1ccc2c(c1)OCO2)NCc1cn2cc(Cl)ccc2n1,inconclusive: 95.7%

row,SMILES,binding response (% of control)
1,O=C(O)CNS(=O)(=O)c1ccc2c(c1)CCCC2,inconclusive: 120%
2,COc1cc(/C=N\NC(=O)c2ccccc2F)ccc1Oc1ccc([N+](=O)[O-])cn1,inconclusive: 162%
3,CC(C)C[C@H](NC(=O)N1CCCCCC1)C(=O)O,inconclusive: 108%
4,O=C(Nc1cccc(S(=O)(=O)NC2=NCCCCC2)c1)c1cc(-c2ccco2)nc2ccccc12,inconclusive: 994%
5,O=c1ccc2[n+]([O-])c3ccc(O)cc3oc-2c1,inconclusive: 135%
6,CC(C)N1CCC2(CC1)Oc1ccc(Br)cc1C1CC(c3cccnc3)=NN12 (stereo unspecified),inconclusive: 99.5%
7,COc1ccccc1CNC(=O)Cn1c(=O)oc2cc(Cl)ccc21,inconclusive: 116%
8,CCOC(=O)CON1C(=O)C(=O)N(OCC(=O)OCC)[C@H]2CCCC[C@H]21,inconclusive: 159%
9,CC1CC(CCN)(c2ccccc2)C(C)CN1C (stereo unspecified),inconclusive: 97.4%
10,CC(C)c1ncc(S(=O)(=O)c2ccc(C(F)(F)F)cn2)c(N)n1,inconclusive: 98.9%
11,CC(C(=O)c1ccccc1)[n+]1cccc(C(N)=O)c1 (stereo unspecified),inconclusive: 115%
12,COc1ccc(NC(=O)N2CCN(C(=O)Nc3ccc(OC)cc3)CC2)cc1,inconclusive: 68.8%
13,Cc1c(CCOC(=O)C23CC4CC(CC(C4)C2)C3)sc[n+]1CC#N,inactive: 101%
14,CCOC(=O)CCCNC(=O)COC(=O)c1cc(Br)c(Br)s1,inconclusive: 89.8%
15,COc1cccc(C2C(=O)c3ccccc3C2=O)c1,inconclusive: 90%
16,Cc1ccc(CSCCNC(=O)CN(c2ccccc2)S(C)(=O)=O)cc1,inconclusive: 132%
17,CCOc1ccc(-n2nnc3c(=O)n(CC(=O)NCc4ccco4)cnc32)cc1,inconclusive: 115%
18,CCN(CC)CCSc1nc2ccc(OC)cc2[nH]1,inconclusive: 88.9%
19,COc1cccc(CSc2nnc(C(F)(F)F)n2Cc2ccc(F)cc2)c1,active: 11.7%
20,C/C(=N\Nc1ccc(C(=O)O)cc1)c1ccc2c(c1)Nc1ccccc1S2,inconclusive: 147%
21,O=C(/C=C/c1ccccc1)NC(=S)Nc1ncccn1,inconclusive: 137%
22,CN1C(=S)N2CCCN2C1c1ccccc1 (stereo unspecified),inconclusive: 127%

# In the list so far, these contain bromine.
row,SMILES,binding response (% of control)
7,Brc1ccc(Nc2nc(-c3cccnc3)cs2)cc1,inconclusive: 90.9%
6,CC(C)N1CCC2(CC1)Oc1ccc(Br)cc1C1CC(c3cccnc3)=NN12 (stereo unspecified),inconclusive: 99.5%
14,CCOC(=O)CCCNC(=O)COC(=O)c1cc(Br)c(Br)s1,inconclusive: 89.8%
